Data as given in publication PMC8797470, “Disruption of the pentraxin 3/CD44 interaction as an efficient therapy for triple‐negative breast cancers” (Clinical and Translational Medicine, 2022).
No constants are given. Whether binding was seen depends on the method and setting. Binding seen in cells or lysates may run through a third protein. These calls come from enrichment with a bait or labelling near it, and not all partners need be listed.

The chains behind the UniProt entries cited, without tags or fusion partners. Residues count along the entry.
UniProt P26022, residues 18-381: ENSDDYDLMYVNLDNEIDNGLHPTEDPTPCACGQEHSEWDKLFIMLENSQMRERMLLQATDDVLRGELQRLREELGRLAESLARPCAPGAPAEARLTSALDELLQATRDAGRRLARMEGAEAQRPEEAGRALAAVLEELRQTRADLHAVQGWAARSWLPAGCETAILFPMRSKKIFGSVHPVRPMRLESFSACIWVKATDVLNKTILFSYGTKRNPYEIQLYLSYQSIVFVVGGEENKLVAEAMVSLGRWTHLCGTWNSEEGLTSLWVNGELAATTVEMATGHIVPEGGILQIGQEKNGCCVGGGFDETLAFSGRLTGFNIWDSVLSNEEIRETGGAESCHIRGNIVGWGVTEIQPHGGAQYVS
UniProt P16070, residues 21-742: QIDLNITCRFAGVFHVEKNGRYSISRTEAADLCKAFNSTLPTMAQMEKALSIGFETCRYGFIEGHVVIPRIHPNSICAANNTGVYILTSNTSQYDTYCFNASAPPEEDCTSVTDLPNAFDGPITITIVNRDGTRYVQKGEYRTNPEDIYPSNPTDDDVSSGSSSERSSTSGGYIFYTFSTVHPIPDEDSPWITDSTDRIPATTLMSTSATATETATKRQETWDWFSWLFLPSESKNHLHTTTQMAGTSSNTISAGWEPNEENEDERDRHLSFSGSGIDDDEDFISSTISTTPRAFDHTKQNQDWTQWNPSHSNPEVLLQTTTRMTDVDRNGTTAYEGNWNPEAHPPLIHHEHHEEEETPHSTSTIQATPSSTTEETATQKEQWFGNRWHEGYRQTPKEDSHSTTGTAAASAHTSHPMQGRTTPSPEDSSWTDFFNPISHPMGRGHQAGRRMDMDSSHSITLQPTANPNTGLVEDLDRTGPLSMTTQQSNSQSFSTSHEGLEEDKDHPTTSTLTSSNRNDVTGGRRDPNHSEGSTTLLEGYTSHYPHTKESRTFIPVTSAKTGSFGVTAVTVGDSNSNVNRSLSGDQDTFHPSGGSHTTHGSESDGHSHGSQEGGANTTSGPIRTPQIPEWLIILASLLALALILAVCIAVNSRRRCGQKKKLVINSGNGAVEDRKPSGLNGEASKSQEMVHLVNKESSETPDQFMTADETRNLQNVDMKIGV

Target: recombinant His/PTX3 (pentraxin 3) from Expi293F human cells (UniProt P26022)
Test: affinity purification with mass spectrometry; recombinant His/PTX3 from Expi293F cells as bait, pull-down, LC-MS/MS; source of the prey proteins not stated; only the target purified

binding: binds
Substance: CD44 of MDA-MB-231 cells (from UniProt P16070 21-742) (receptor)
